No constants are given. Whether binding was seen depends on the method and setting. Binding seen in cells or lysates may run through a third protein. Some entries that bind do so weakly or less than the wild type.
Target: PARP1 (human (endogenous in HUVECs)) (UniProt P09874)
Assay: co-IP; whole-cell extract incubated with PARP1 antibody (1:50) or POLG antibody (1:50) at 4 °C overnight, Protein A/G magnetic beads 3 h, PBS washes, eluted by boiling, western blot

Amino acid sequences for entries named in this document (tags omitted).
UniProt P09874: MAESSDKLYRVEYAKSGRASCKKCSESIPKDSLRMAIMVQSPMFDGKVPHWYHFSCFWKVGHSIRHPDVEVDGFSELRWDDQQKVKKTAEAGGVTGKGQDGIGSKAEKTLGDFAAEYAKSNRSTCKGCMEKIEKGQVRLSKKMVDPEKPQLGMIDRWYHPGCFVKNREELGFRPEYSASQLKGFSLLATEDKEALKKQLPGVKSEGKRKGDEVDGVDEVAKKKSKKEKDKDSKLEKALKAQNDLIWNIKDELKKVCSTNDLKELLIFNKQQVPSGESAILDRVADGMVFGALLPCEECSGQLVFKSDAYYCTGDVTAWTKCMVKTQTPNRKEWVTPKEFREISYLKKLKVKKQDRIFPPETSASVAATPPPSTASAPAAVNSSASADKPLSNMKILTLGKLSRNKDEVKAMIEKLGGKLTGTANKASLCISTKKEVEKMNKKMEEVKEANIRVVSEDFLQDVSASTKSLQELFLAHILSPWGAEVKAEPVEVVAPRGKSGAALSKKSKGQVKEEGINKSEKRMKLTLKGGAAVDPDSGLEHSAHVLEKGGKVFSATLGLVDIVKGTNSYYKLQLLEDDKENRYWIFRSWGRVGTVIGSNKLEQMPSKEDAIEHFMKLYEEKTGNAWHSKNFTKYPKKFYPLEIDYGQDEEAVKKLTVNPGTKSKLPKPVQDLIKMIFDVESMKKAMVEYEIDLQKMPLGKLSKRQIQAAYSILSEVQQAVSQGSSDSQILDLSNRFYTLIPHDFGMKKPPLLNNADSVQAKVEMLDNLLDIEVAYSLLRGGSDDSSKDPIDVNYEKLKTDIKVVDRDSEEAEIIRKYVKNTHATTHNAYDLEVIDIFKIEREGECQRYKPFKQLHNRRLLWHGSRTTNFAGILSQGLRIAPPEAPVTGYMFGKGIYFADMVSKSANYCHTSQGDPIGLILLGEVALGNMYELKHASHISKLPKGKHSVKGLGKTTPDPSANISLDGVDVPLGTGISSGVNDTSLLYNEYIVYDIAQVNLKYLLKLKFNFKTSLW
UniProt P54098: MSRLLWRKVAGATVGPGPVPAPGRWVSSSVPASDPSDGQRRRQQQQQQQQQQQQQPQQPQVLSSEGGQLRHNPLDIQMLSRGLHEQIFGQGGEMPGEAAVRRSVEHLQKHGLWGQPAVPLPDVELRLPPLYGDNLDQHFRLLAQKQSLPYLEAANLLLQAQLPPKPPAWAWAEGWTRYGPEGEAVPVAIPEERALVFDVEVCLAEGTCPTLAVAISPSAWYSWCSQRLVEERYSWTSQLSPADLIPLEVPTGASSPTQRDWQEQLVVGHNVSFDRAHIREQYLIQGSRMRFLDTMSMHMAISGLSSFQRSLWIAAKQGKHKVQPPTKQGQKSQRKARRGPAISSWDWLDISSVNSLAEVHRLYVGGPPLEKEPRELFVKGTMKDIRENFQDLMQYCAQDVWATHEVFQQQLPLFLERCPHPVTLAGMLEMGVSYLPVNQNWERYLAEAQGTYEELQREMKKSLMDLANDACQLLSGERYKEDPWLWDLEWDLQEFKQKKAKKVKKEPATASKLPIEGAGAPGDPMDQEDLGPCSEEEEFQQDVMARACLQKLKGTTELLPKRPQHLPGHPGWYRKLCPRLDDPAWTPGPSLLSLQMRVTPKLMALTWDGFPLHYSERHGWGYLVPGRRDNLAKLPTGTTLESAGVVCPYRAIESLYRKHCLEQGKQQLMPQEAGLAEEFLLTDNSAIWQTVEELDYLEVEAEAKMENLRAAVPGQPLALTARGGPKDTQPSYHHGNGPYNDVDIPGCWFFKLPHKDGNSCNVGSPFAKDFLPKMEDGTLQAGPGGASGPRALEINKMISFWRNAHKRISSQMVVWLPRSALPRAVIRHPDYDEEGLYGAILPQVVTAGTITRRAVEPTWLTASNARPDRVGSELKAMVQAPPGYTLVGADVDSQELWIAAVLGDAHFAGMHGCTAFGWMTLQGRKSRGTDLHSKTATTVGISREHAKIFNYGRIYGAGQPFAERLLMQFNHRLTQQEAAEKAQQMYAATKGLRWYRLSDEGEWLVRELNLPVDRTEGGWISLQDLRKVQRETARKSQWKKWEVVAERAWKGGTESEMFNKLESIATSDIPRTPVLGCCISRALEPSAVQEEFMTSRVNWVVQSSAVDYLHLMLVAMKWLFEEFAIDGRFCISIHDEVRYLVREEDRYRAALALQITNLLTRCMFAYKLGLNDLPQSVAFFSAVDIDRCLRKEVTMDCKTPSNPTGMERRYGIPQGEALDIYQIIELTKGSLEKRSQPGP

For POLG (from UniProt P54098 1-1239), the binding was “binds”.
